In this experiment the target is T1, peptides containing sequence … (Pepscan array, linear and single loop) (human).
T1 sequence (peptide): YQCRVTHPHLPRALM
In words: Pepscan CLIPS peptide array.

Results are given in words; binding and its absence hold for the method and conditions named. Some entries that bind do so weakly or less than the wild type.

B1: hLAAIGE E17 (antibody, human IgG1, kappa, V domains shown)
VH: QVQLVQSGSELKKPGASVKVSCKASGYTFTNYGMNWVRQAPGQGLEWMGWINTYTGEPTYADDFKGRFVFSLDTSVSTAYLQISSLKAEDTAVYYCARGAASHTMDYWGQGTTVTVSS
VL: DIVMTQSPDSLAVSLGERATINCRASQSVSTSSHAYMHWYQQKPGQPPKLLIYYASNLESGVPDRFSGSGSGTDFTLTISSLQAEDVAVYYCQHSWEIPWTFGQGTKLEIKR
Consider B1, for which the binding entry is “binds”.

B2: hLAAIGE E59 (antibody, human IgG1, kappa, V domains shown)
VH: QVQLVQSGSELKKPGASVKVSCKASGYTFTNYGMNWVRQAPGQGLEWMGWINTYTGEPTYADDFKGRFVFSLDTSVSTAYLQISSLKAEDTAVYYCARGAASHTMDYWGQGTTVTVSS
VL: DIVMTQSPDSLAVSLGERATINCRASQSVSTSSHSYMHWYQQKPGQPPKLLIYYASNLESGVPDRFSGSGSGTDFTLTISSLQAEDVAVYYCQHSWEIPWTFGQGTKLEIKR
On to B2, for which the binding result is reported as “binds”.
